Assay results: doi:10.1101/2024.09.09.611999
These are yes or no findings as the source states them, for the method shown. In cells and extracts the contact can be indirect. Here binding means that the protein was enriched with, or labelled near, the bait; the list need not be complete.

Chains of the proteins cited; added tags and fusions are not shown.
UniProt P11142: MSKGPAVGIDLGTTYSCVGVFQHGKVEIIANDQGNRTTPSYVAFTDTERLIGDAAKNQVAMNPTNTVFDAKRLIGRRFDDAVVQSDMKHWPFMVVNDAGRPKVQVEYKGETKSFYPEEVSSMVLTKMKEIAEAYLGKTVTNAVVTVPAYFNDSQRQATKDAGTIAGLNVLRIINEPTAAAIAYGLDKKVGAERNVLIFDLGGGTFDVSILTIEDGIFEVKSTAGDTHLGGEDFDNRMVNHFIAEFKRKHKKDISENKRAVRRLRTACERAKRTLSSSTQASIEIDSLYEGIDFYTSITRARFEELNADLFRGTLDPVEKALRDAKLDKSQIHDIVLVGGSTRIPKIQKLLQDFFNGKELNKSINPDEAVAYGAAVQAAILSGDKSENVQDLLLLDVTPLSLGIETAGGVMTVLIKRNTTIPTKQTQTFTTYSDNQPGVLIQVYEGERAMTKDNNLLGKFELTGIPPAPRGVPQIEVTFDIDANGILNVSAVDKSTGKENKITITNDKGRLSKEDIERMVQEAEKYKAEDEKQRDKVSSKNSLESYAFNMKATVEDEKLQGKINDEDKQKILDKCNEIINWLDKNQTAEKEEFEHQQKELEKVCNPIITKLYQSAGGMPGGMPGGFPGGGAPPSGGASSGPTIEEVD

Target: T1, peroxiredoxin 6 (PRDX6) (human) (UniProt P30041)
T1 sequence: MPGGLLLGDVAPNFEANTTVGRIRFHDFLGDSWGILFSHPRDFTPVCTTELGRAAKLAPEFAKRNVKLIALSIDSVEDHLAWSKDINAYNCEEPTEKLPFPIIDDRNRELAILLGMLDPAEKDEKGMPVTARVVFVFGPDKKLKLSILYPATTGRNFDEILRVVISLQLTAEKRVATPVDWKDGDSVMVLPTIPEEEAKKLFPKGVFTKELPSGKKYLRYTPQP
Experiment: affinity purification with mass spectrometry

binding: binds
Substance: HSPA8 (from UniProt P11142 1-646)
